Experimental data reported in the supplement of paper PMC12819154, “High-throughput peptide-centric local stability assay extends protein–ligand identification to membrane proteins, tissues and bacteria” (Nature Structural & Molecular Biology, 2025).
The list shows a part of the results. Small differences around the control level are noise.

Protein sequences, listed by entry. Tags and fused reporters are not part of them. Lines headed by an entry give the natural chain unless they say otherwise; changes in a name come on top.
UniProt Q6ZN32: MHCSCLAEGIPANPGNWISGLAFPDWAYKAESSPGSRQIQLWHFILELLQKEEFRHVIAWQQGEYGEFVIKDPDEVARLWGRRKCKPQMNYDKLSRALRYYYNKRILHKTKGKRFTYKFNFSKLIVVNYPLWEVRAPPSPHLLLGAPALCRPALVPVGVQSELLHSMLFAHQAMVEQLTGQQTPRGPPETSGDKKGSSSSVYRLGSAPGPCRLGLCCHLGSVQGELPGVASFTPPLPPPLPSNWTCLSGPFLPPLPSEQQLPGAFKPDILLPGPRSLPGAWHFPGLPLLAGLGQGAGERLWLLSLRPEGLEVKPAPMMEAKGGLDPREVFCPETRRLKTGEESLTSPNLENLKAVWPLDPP
UniProt Q6ZTN6: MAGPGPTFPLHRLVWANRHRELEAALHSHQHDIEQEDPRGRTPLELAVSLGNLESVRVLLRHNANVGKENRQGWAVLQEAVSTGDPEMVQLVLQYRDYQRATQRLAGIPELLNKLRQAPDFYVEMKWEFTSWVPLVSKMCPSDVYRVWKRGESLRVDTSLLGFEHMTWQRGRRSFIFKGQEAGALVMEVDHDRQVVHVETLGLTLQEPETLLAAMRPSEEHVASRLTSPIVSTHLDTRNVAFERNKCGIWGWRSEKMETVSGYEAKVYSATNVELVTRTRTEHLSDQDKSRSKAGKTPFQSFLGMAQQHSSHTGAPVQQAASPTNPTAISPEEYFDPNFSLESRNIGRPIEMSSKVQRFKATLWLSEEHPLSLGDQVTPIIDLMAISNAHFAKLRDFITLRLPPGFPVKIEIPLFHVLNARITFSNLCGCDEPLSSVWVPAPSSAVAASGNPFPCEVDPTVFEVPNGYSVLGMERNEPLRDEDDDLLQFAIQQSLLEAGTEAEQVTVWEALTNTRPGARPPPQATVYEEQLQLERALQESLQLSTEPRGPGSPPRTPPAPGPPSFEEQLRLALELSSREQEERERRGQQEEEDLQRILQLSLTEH
UniProt Q7Z7K6: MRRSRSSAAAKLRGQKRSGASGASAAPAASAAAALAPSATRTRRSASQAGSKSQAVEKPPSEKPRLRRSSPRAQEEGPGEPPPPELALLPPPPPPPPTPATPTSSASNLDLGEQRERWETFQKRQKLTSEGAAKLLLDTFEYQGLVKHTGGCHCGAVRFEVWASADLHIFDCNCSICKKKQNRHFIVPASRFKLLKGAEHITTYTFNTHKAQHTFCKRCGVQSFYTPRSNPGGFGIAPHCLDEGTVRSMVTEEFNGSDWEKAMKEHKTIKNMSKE
UniProt Q86TJ2: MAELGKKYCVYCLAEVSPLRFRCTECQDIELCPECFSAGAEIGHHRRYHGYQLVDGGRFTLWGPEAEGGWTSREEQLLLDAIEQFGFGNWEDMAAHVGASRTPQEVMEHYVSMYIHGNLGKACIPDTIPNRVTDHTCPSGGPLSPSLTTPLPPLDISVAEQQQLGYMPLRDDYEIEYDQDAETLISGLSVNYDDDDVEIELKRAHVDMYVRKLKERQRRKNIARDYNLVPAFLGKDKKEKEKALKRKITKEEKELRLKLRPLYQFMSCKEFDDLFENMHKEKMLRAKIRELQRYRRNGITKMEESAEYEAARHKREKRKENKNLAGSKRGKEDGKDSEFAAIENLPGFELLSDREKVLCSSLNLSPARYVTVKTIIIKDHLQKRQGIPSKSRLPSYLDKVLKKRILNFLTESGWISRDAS
UniProt Q6ZSB9: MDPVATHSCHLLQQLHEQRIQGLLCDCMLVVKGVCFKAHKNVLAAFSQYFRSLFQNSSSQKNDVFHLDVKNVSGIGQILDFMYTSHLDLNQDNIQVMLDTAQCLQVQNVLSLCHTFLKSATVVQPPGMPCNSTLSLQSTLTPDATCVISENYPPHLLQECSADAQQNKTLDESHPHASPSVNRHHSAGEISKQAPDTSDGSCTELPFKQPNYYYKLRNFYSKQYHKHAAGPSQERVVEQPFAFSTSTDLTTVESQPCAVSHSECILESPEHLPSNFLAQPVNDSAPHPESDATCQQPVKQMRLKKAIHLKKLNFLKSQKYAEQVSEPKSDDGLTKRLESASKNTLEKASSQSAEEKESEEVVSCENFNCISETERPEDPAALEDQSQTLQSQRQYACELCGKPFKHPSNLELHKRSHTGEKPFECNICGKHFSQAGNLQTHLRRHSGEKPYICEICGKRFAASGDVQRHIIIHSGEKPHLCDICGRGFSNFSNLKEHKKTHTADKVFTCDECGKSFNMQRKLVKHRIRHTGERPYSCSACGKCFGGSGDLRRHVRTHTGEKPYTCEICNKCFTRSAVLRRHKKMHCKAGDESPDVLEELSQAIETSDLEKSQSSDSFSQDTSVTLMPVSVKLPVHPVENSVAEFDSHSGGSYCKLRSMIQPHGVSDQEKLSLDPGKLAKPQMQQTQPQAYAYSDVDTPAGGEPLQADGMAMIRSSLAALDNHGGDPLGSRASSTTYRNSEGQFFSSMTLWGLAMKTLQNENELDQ
UniProt Q86SQ7: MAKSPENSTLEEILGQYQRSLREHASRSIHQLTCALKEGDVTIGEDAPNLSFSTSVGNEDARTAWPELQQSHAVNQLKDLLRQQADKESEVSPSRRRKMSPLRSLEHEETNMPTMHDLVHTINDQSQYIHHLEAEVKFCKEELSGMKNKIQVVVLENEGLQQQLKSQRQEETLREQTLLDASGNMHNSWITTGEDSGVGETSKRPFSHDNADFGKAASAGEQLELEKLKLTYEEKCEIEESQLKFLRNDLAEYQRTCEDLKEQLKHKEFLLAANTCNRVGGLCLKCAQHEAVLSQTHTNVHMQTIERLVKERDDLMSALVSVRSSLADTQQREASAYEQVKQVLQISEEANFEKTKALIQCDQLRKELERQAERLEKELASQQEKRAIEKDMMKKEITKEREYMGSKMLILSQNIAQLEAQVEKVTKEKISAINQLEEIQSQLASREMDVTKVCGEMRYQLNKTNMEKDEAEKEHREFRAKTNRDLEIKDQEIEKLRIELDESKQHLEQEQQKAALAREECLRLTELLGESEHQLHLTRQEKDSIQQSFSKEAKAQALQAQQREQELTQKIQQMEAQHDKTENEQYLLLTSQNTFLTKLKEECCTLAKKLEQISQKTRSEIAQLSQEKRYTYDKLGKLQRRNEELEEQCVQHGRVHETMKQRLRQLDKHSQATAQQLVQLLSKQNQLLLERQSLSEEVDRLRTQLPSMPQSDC
UniProt Q7RTV5: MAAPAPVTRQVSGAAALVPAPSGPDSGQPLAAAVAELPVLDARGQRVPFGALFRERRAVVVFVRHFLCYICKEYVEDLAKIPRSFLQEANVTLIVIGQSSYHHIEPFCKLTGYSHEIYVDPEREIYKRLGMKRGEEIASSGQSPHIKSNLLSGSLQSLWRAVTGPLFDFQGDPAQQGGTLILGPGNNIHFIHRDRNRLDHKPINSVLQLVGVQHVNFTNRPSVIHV
UniProt Q7Z422: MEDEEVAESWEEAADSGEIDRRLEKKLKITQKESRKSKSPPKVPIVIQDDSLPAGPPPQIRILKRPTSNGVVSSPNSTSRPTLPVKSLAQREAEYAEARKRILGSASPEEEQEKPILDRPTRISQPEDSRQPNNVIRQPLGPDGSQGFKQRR
UniProt Q6ZS11: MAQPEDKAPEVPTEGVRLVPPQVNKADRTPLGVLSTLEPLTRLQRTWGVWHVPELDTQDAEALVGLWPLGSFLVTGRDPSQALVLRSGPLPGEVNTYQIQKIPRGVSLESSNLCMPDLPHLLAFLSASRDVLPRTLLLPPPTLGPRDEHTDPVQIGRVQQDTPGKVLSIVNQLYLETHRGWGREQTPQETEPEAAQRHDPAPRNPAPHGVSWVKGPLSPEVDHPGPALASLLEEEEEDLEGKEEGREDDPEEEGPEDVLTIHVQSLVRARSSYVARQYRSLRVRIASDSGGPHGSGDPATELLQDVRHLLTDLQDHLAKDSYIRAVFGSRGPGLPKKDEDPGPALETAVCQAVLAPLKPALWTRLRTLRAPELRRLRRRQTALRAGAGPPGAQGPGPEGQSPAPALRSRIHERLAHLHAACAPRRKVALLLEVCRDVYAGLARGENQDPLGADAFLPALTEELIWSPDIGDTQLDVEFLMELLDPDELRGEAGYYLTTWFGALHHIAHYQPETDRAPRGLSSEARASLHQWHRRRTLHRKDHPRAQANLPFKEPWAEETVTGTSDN
UniProt Q7Z2W4: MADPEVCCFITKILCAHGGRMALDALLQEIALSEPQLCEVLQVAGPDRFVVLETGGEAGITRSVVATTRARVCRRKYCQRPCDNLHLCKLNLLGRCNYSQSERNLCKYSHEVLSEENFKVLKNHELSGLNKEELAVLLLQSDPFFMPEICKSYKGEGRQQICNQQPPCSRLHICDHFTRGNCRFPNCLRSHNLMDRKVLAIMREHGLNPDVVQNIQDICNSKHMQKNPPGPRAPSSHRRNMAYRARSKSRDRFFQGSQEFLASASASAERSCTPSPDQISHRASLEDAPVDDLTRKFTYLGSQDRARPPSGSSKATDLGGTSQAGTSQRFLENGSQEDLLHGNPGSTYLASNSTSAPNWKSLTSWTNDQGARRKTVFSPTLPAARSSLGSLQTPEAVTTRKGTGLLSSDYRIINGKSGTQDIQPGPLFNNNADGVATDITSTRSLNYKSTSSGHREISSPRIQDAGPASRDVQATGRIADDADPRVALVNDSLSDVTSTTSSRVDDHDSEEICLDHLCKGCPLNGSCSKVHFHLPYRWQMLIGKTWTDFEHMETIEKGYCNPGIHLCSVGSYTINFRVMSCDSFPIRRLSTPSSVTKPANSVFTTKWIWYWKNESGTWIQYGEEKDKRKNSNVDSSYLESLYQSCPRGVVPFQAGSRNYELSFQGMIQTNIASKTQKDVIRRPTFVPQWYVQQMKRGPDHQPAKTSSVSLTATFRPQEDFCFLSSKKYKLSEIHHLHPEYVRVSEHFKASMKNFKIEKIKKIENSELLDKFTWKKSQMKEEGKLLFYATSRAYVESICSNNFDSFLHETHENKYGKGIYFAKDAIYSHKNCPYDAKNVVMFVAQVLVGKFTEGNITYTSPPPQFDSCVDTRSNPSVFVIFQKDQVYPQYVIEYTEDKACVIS
UniProt Q86US8: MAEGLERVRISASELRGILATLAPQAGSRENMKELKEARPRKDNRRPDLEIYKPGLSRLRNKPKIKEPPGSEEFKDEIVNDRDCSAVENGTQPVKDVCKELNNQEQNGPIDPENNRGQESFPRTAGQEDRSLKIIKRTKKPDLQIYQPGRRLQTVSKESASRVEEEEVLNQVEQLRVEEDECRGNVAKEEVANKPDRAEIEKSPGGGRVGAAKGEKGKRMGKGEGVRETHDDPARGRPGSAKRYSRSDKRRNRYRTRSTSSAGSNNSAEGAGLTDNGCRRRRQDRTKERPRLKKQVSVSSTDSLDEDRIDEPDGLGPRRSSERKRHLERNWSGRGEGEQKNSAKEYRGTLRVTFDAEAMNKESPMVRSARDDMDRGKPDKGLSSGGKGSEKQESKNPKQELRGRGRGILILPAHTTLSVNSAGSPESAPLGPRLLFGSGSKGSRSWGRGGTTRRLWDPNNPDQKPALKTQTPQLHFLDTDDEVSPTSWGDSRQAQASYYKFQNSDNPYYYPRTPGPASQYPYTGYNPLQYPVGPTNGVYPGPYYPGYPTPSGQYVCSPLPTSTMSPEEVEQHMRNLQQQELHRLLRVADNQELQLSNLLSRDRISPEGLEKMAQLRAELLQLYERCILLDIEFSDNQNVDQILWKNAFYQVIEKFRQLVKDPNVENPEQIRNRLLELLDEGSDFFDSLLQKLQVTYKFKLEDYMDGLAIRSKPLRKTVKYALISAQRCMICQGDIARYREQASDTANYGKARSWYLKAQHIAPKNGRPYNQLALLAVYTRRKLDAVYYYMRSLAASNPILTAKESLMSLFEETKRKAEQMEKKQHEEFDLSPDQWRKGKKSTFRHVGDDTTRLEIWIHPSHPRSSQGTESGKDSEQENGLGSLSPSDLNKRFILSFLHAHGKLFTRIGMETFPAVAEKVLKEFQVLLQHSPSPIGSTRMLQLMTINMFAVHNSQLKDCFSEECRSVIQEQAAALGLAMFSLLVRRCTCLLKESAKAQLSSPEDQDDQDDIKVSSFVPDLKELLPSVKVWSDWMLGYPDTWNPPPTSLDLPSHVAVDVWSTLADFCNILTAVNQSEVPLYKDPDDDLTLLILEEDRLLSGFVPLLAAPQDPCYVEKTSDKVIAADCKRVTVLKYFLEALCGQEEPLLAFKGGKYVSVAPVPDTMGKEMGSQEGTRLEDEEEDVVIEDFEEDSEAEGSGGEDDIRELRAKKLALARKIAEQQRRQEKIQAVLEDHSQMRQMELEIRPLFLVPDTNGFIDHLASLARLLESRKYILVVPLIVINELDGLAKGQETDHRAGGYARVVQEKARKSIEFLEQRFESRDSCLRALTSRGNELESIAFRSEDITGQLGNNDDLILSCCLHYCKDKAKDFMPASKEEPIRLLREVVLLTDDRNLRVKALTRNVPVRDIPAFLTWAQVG

compound: Cc1nc(Nc2ncc(C(=O)Nc3c(C)cccc3Cl)s2)cc(N2CCN(CCO)CC2)n1 [dasatinib]; test: log2 fold change of tryptic peptide abundance, ligand vs vehicle (limited proteolysis) (log2 ratio); higher = more trypsin-susceptible (destabilized); settings: ligand concentration: 5 uM; sample: K562 cleared lysate

Q: Which log2 fold change does the source give for “UniProt Q6ZN32 (peptide sequence: CKPQMNYDKLSR, peptide start residue: 72)” here?
A: -0.128

Q: “ANKRD13D (peptide sequence: EQEERER, peptide start residue: 579) (UniProt Q6ZTN6)” was tested. Which log2 fold change did it give?
A: -0.511

Q: For “CENPV (peptide sequence: GAEHITTYTFNTHK, peptide start residue: 197) (UniProt Q7Z7K6)”, which log2 fold change is on record?
A: 0.233

Q: For “TADA2B (peptide sequence: RYHGYQLVDGGR, peptide start residue: 47) (UniProt Q86TJ2)”, which log2 fold change is on record?
A: -0.256

Q: How did the log2 fold change turn out when “UniProt Q6ZSB9 (peptide sequence: TLDESHPHASPSVNR, peptide start residue: 169)” was run?
A: -0.064

Q: Which log2 fold change does the source give for “SDCCAG8 (peptide sequence: YTYDKLGK, peptide start residue: 630) (UniProt Q86SQ7)” here?
A: -0.47

Q: “UniProt Q7RTV5 (peptide sequence: RGEEIASSGQSPHIK, peptide start residue: 133)” was tested. Which log2 fold change did it give?
A: 0.324

Q: For “UniProt Q7Z422 (peptide sequence: ISQPEDSR, peptide start residue: 123)”, which log2 fold change is on record?
A: 0.0794

Q: With “RINL (peptide sequence: SGPLPGEVNTYQIQKIPR, peptide start residue: 87) (UniProt Q6ZS11)” as the target, how does the log2 fold change read?
A: -0.466

Q: How did the log2 fold change turn out when “ZC3HAV1 (peptide sequence: VDDHDSEEICLDHLCK, peptide start residue: 504) (UniProt Q7Z2W4)” was run?
A: -0.52

Q: With “SMG6 (peptide sequence: KQHEEFDLSPDQWR, peptide start residue: 823) (UniProt Q86US8)” as the target, how does the log2 fold change read?
A: -0.252
